Earlier results, collected in patent US7652024B2, “Acylated spiropiperidine derivatives as melanocortin-4 receptor modulators” (Merck Sharp & Dohme Corp., priority 2005, dated 2010).
Some of these results come from one statement about several compounds together. Some ranges recur; such a range may be that of the whole group of compounds.

System: body weight
Details: for weight loss of body weight for drug compared to placebo: monotherapy

For `CCN[C@@H](C)Cc1cccc(C(F)(F)F)c1` [dexfenfluramine], the “weight loss of body weight for drug compared to placebo” value (shortened to “weight loss … compared to placebo”) is given as 5%-10%.

In the case of `CC(C)CC(N(C)C)C1(c2ccc(Cl)cc2)CCC1` (stereo not shown) [sibutramine], the “weight loss … compared to placebo” value is given as 5%-10% and the “reduction of body weight” value (over a 6 month or a 1 year period) is given as “less than 10%”.

In the case of `CC(C)(N)Cc1ccccc1` [phentermine], the “weight loss … compared to placebo” value is given as 5%-10%.
